# Reference: article PMC10135852
# These are yes or no findings as the source states them, for the method shown. In cells and extracts the contact can be indirect. Here binding means that the protein was enriched with, or labelled near, the bait; the list need not be complete.
# T1: Mitochondrial inner membrane protein (Mitofilin/Mic60) (mouse (endogenous in mouse cardiac mitochondria)) (UniProt Q8CAQ8)
# T1 sequence: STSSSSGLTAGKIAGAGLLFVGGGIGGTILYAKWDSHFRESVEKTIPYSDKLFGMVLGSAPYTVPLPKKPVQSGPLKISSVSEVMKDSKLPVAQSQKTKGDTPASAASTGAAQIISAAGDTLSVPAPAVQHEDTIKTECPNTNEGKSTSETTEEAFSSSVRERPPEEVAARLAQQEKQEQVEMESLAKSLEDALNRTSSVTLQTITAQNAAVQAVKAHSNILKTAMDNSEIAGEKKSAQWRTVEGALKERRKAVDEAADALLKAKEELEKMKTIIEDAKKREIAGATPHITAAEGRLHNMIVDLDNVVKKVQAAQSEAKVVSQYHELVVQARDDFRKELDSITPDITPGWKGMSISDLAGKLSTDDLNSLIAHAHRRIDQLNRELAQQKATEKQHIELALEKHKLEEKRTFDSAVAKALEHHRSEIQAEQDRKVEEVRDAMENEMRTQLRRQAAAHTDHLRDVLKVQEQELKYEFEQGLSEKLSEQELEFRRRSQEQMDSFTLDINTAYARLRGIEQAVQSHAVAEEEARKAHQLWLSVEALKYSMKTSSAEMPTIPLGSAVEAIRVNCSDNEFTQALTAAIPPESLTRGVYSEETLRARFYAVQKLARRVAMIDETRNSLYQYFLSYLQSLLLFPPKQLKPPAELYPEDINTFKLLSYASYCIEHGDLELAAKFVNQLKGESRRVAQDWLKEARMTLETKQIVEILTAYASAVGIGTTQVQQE
# B1: SLC25A3 (protein, UniProt Q8VEM8 46-357)
# chain: AVEEYSCEFGSMKYYALCGFGGVLSCGLTHTAVVPLDLVKCRMQVDPQKYKGIFNGFSITLKEDGVRGLAKGWAPTLIGYSMQGLCKFGFYEVFKALYSNILGEENTYLWRTSLYLASSASAEFFADIALAPMEAAKVRIQTQPGYANTLREAVPKMYKEEGLNAFYKGVAPLWMRQIPYTMMKFACFERTVEALYKFVVPKPRSECTKAEQLVVTFVAGYIAGVFCAIVSHPADSVVSVLNKEKGSTASQVLQRLGFRGVWKGLFARIIMIGTLTALQWFIYDSVKVYFRLPRPPPPEMPESLKKKLGLTE
# B2: SLC25A5 (protein, UniProt P51881 1-298)
# chain: MTDAAVSFAKDFLAGGVAAAISKTAVAPIERVKLLLQVQHASKQITADKQYKGIIDCVVRIPKEQGVLSFWRGNLANVIRYFPTQALNFAFKDKYKQIFLGGVDKRTQFWRYFAGNLASGGAAGATSLCFVYPLDFARTRLAADVGKAGAEREFKGLGDCLVKIYKSDGIKGLYQGFNVSVQGIIIYRAAYFGIYDTAKGMLPDPKNTHIFISWMIAQSVTAVAGLTSYPFDTVRRRMMMQSGRKGTDIMYTGTLDCWRKIARDEGSKAFFKGAWSNVLRGMGGAFVLVLYDEIKKYT
# B3: SLC25A11 (protein, UniProt Q9CR62 1-314)
# chain: MAATASPGAGRMDGKPRTSPKSVKFLFGGLAGMGATVFVQPLDLVKNRMQLSGEGAKTREYKTSFHALTSILKTEGLKGIYTGLSAGLLRQATYTTTRLGIYTVLFERLTGADGTPPGFLLKALIGMTAGATGAFVGTPAEVALIRMTADGRLPADQRRGYKNVFNALVRIAREEGVPTLWRGCIPTMARAVVVNAAQLASYSQSKQFLLDSGYFSDNILCHFCASMISGLVTTAASMPVDIVKTRIQNMRMIDGKPEYKNGLDVLLKVVRYEGFFSLWKGFTPYYARLGPHTVLTFIFLEQMNKAYKRLFLSG
# B4: SLC25A22 (protein, UniProt Q9D6M3 1-323)
# chain: MADKQISLPAKLINGGIAGLIGVTCVFPIDLAKTRLQNQQNGQRMYASMSDCLIKTIRSEGYFGMYRGAAVNLTLVTPEKAIKLAANDFFRHQLSKDGQKLTLPKEMLAGCGAGTCQVIVTTPMEMLKIQLQDAGRIAAQRKILAAQAQLSAQGGAQPSVEAPAPPRPTATQLTRDLLRNHGIAGLYKGLGATLLRDVPFSIVYFPLFANLNQLGRPSSEEKSPFYVSFLAGCVAGSAAAVAVNPCDVVKTRLQSLERGVNEDTYSGFLDCARKIWRHEGPSAFLKGAYCRALVIAPLFGIAQVVYFLGIAESLLGLLQEPQA
# B5: SLC25A20 (protein, UniProt Q9Z2Z6 1-301)
# chain: MADEPKPISPFKNLLAGGFGGMCLVFVGHPLDTVKVRLQTQPPSLSGQPPMYSGTLDCFRKTLMREGITGLYRGMAAPIIGVTPMFAVCFFGFGLGKKLQQKSPEDELSYPQLFTAGMLSGVFTTGIMTPGERIKCLLQIQASSGENKYSGTLDCAKKLYQEFGIRGFYKGTVLTLMRDVPASGMYFMTYEWLKNLFTPEGKSVSDLSVPRILVAGGFAGIFNWAVAIPPDVLKSRFQTAPPGKYPNGFRDVLRELIREEGVTSLYKGFNAVMIRAFPANAACFLGFEIAMKFLNWIAPNL
# B6: SLC25A42 (protein, UniProt Q8R0Y8 1-318)
# chain: MGNGVQEGSVRLREDAEAVLAGAVSSKRDHRQVLSSLLSGALAGALAKTAVAPLDRTKIIFQVSSKRFSAKEAFRLLYFTYLNEGFLSLWRGNSATMVRVIPYAAIQFSAHEEYKRILGHYYGFRGEALPPWPRLLAGALAGTTAASLTYPLDLVRARMAVTPKEMYSNIFHVFIRISREEGLKTLYFGFTPTVLGVIPYAGLSFFTYESLKSLHREYSGRPQPYPFERMVFGACAGLIGQSASYPLDVVRRRMQTAGVTGHQHGSILSTLRSIVREEGAVRGLYKGLSMNWLKGPIAVGISFTTFDLMQILLRRLQS
# B7: mitochondrial contact site and cristae organizing system (MICOS) subunit 19 (protein, UniProt Q9CRB9 1-227)
# chain: MGGTASTRRVTFEADENENITVVKGIRLSENVIDRMKESSPSGSKSQRYSSVYGASVSDEDLKRRVAEELALEQAKKESEHQRRLKQARDLERERAAANEQLTRAVLRERISSEEERMKAKHLARQLEEKDRVMRKQDAFYKEQLARLEERSSEFYKVTTEEYQKAAEEVEAKFKRYEYHPVCADLQTKILQCYRQNTQQTLSCSALASQYMHCVNHAKQSMLEKGG
# B8: mitochondrial contact site and cristae organizing system (MICOS) subunit 25 (protein, UniProt Q91VN4 1-273)
# chain: MGSAESAEARRVSFEMDEEERVRVLQGIRLSESVVNRMKDCSQPSAGEQLVPGFGPSSSAPVPTVPLPAISVPTVPAPTTPVPTAPSSSVRGLPGGTCKGPLTDVKVPSAESGGGLQSSAVKEDLKKFQQEQLAVQDEMVRVAKKEKEAAEKHLKASLPKKKASLTHEQQQSARLARELEDREAELSRRDTFYKEQQGRIQEKNAELYKLSSQQFHEAASKAESTIKPRRVEPVCSGLQAQILRCYRDHLHEVLLCSDLVKAYQHCVSTARKG
# B9: mitochondrial contact site and cristae organizing system (MICOS) subunit 26 (protein, UniProt Q9DCZ4 24-198)
# chain: APKKDSPHKSYMKIDELSLYSVPEGQSKYVEEPRTQLEENISQLRHHCEPYTSFCQEIYSHTKPKVDHFVQWGVDNYNYLQNAPPGFFPRLGVIGFAGFVGLLFARGSKIKKLVYPPFFMGLGASVYYPQQAITIAQITGEKLYDWGLRGYIVIEDLWKQNFQKPGNVKNSPGNK
# B10: mitochondrial contact site and cristae organizing system (MICOS) subunit 27 (protein, UniProt Q78IK4 28-265)
# chain: EEEPKKQLVRPDQLPIYTAPPLHSKYVEEQPGNLQRGFASIRTTTVYYIGWCKSIYLFMKNGVMDTVQFGKDAYVYLKNPPQDFLPKMGVITASGLAGLLSARKGSRFKKIAYPLGLATLGATVCYPAQSVIIAKITGKKAYATSQQIFQAIKSLWTQKSENESLPEPKEESKEGRSDEIHASLPDLKHSVSLPKELASATVIKSESTSGTTQFIPDPKLMDHGQSHPDDKDMYSTRS
# B11: SAMM50 (protein, UniProt Q8BGH2 1-469)
# chain: MGTVHARSLEPLPSSGTDFGALGEEAEFVEVEPEAKQEILENKDVVVQHVHFDGLGRTKDDIIICEIGEVFKAKNLIEVMRRSHEAREKLLRLGIFRQVDVLIDTCHGEDALPNGLDVTFEVTELRRLTGSYNTMVGNNEGSMVLGLKLPNLLGRAEKVTFQFSYGTKETSYGLSFFKPQPGNFERNFSVNLYKVTGQFPWSSLRETDRGVSAEYSFPLWKTSHTVKWEGVWRELGCLSRTASFAVRKESGHSLKSSLSHAMVIDSRNSSILPRRGALFKVNQELAGYTGGDVSFIKEDFELQLNKPLALDSVFSTSLWGGMLVPIGDKPSSIADRFYLGGPTSVRGFSMHSIGPQSEGDYLGGEAYWAGGLHLYTPLPFRPGQGGFGELFRTHFFLNAGNLCNLNYGEGPKAHIRKLAECIRWSYGAGVVLRLGNIARLELNYCIPMGVQGGDRICDGVQFGAGIRFL
# Molecular target: T1, Mitochondrial inner membrane protein (Mitofilin/Mic60) (mouse (endogenous in mouse cardiac mitochondria))
# Assay: affinity purification with mass spectrometry; mitochondrial proteins from normal wild-type mouse hearts immunoprecipitated with an anti-Mitofilin antibody; eluate separated by SDS-PAGE, gel slices digested with trypsin, HPLC-ESI-MS/MS (Orbitrap Velos Pro); Mascot search of UniProt_mouse, Scaffold
row,Binder,binding
1,B1,binds
2,B2,binds
3,B3,binds
4,B4,binds
5,B5,binds
6,B6,binds
7,B7,binds
8,B8,binds
9,B9,binds
10,B10,binds
11,B11,binds
